Assay: Differential solvent extraction with ethyl acetate:cyclohexane ratios (Table P)
[1] = Ethyl Acetate : Cyclohexane Ratio 1:1
[2] = Ethyl Acetate : Cyclohexane Ratio 3:4
[3] = Ethyl Acetate : Cyclohexane Ratio 5.5:4.5

Row | Structure (SMILES) | Removed [1] | Removed [2] | Removed [3] | Purity [1] | Recovered [1] | Purity [2] | Recovered [2] | Purity [3] | Recovered [3]
1 | CCCCCc1cc(O[C@@H]2O[C@H](CO)[C@@H](O)[C@H](O)[C@H]2O)c2c(c1)OC(C)(C)[C@@H]1CCC(C)=C[C@@H]21 [VB302, Δ9THC-1-O-glucopyranoside] | 99.81% | 99.09% | 99.81% | – | – | – | – | – | –
2 | CCCCCc1cc(O[C@@H]2O[C@H](CO[C@@H]3O[C@H](CO)[C@@H](O)[C@H](O)[C@H]3O)[C@@H](O)[C@H](O)[C@H]2O)c2c(c1)OC(C)(C)[C@@H]1CCC(C)=C[C@@H]21 [VB310] | 58.56% | 31.86% | 66.18% | – | – | – | – | – | –
3 | CCCCCc1cc(O[C@@H]2O[C@H](CO[C@@H]3O[C@H](CO)[C@@H](O)[C@H](O)[C@H]3O)[C@@H](O[C@@H]3O[C@H](CO)[C@@H](O)[C@H](O)[C@H]3O)[C@H](O)[C@H]2O)c2c(c1)OC(C)(C)[C@@H]1CCC(C)=C[C@@H]21 [VB311] | – | – | – | 87.54% | 106.06% | 84.82% | 115.01% | 86.01% | 98.05%

From patent US20230346952A1, “CANNABINOID GLYCOSIDE PRODRUGS AND METHODS OF SYNTHESIS” (priority 2015, published 2023)
